Drawing on the supplement of paper PMC10735217, this text covers TEAD-luciferase reporter activity for 15 compounds.

Molecules are shown by their SMILES. Structures can show the parent of a compound that is named as a salt. Some of the results follow. Single values are uncertain here, since repeats match poorly.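 The human kidney-derived cells carry a stably integrated construct of eight TEAD-binding elements driving luciferase, read by luminescence in a drug-repurposing library screen. A compound counts as a hit when its signal is more than five robust Z scores above the plate mean.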

This assay has as its system HEK293A TEAD-LUC reporter. The assay is described as follows: TEAD-luciferase reporter activity (YAP activation), robust Z score vs plate; higher = stronger YAP/TEAD activation. The note with it: 24 h. On the technique in general: In a reporter assay the amount or activity of a reporter protein is the signal.

Turning to `CCN1CCCC12Cc1ccccc1CN(C(C)=O)C2` (stereo not drawn), the TEAD-luciferase reporter activity reads like this: (compound concentration: 200 nM) inactive: -1.04; (compound concentration: 10 uM) inactive: 0.513.

For `CCCCCCOC(=O)CCC(=O)CN` [Aminolevulinic acid hexyl ester], the TEAD-luciferase reporter activity is inactive: 0.662 (compound concentration: 200 nM), inactive: -0.508 (compound concentration: 2 uM) and inactive: -0.784 (compound concentration: 10 uM).

`CCc1nc(C)cc(=O)n1CCOc1ccc(CC2SC(=O)NC2=O)cc1` (stereo not drawn): the TEAD-luciferase reporter activity (compound concentration: 200 nM) is inactive: -0.767, the TEAD-luciferase reporter activity (compound concentration: 2 uM) is inactive: -1.78 and the TEAD-luciferase reporter activity (compound concentration: 10 uM) was inactive: -0.611.

Take `Cc1nc2n(c(=O)c1CCN1CCC(c3noc4cc(F)ccc34)CC1)CCCC2O` (stereo not drawn) [paliperidone ER, Torrent Pharmaceuticals]: the TEAD-luciferase reporter activity is inactive: -1.79 (compound concentration: 200 nM), inactive: -0.613 (compound concentration: 2 uM) and inactive: 0.948 (compound concentration: 10 uM).

For the compound `O=C(Nc1ccc(C(=O)N2C[C@H]3COCCN3Cc3ccccc32)c(Cl)c1)c1ccccc1-c1ccccc1`, the TEAD-luciferase reporter activity runs as follows: (compound concentration: 200 nM) inactive: 1.11; (compound concentration: 2 uM) inactive: -0.0361; (compound concentration: 10 uM) inactive: -0.898.

For `O=C1NC2(CCN(Cc3ccccc3)CC2)Oc2ccccc21`, the TEAD-luciferase reporter activity by setting is: (compound concentration: 200 nM) inactive: -1.63; (compound concentration: 10 uM) inactive: -0.255.

Turning to `COc1ccc(C(C(N)=O)N2CCCCC2)cc1` (stereo not drawn), the TEAD-luciferase reporter activity by setting is: (compound concentration: 200 nM) inactive: 0.375; (compound concentration: 2 uM) inactive: -2.35; (compound concentration: 10 uM) inactive: -0.429.

Regarding `CC(=O)[C@H]1CC=C2[C@@H]3CC[C@H]4C[C@H](O)CC[C@]4(C)[C@H]3CC[C@@]21C`, the TEAD-luciferase reporter activity is inactive: -0.114 (compound concentration: 200 nM), inactive: 0.541 (compound concentration: 2 uM) and inactive: 1.85 (compound concentration: 10 uM).

With `C/C(=C\C(=O)CC(C)C(=O)O)[C@H]1C[C@H](O)[C@@]2(C)C3=C(C(=O)C[C@]12C)[C@@]1(C)CCC(=O)C(C)(C)[C@@H]1C[C@@H]3O` (stereo partly drawn), the TEAD-luciferase reporter activity by setting is: (compound concentration: 200 nM) inactive: -2.35; (compound concentration: 2 uM) inactive: -0.459; (compound concentration: 10 uM) inactive: -1.38.

For `CN(C)C/C=C(/c1ccc(Br)cc1)c1cccnc1` [zimeldine hydrochloride], the TEAD-luciferase reporter activity (compound concentration: 200 nM) was inactive: 0.0492, the TEAD-luciferase reporter activity (compound concentration: 2 uM) is inactive: -0.888 and the TEAD-luciferase reporter activity (compound concentration: 10 uM) was inactive: -0.18.

`CC1(C)[C@@H]2C[C@H]1[C@@](C)(O)[C@@H](O)C2` [2,3-cis/exo-Pinanediol]: the TEAD-luciferase reporter activity by setting is: (compound concentration: 200 nM) inactive: -0.128; (compound concentration: 2 uM) inactive: -0.131; (compound concentration: 10 uM) inactive: -1.99.

With `C[C@@H](NCCCn1ccnc1)c1ccc(Cl)cc1`, the TEAD-luciferase reporter activity runs as follows: (compound concentration: 200 nM) inactive: 0.962; (compound concentration: 2 uM) inactive: 0.569; (compound concentration: 10 uM) inactive: -0.917.

Turning to `CC(C)[C@H](CO)Nc1nc(Nc2cccc(Cl)c2)c2ncn(C(C)C)c2n1` [Purvalanol A], the TEAD-luciferase reporter activity runs as follows: (compound concentration: 200 nM) inactive: 0.951; (compound concentration: 2 uM) inactive: 1.23; (compound concentration: 10 uM) inactive: 0.967.

`CC(C)[C@H](NC(=O)c1cc(-c2ccc(Nc3nc4ccc(F)cc4s3)cc2)no1)C(=O)O`: the TEAD-luciferase reporter activity is inactive: -0.474 (compound concentration: 200 nM), inactive: 1.18 (compound concentration: 2 uM) and inactive: 0.402 (compound concentration: 10 uM).

As to `C=C[C@@]1(C)CC(=O)[C@]2(O)[C@@]3(C)[C@@H](O)CCC(C)(C)[C@@H]3[C@H](OC(=O)CCN(C)C)[C@H](OC(C)=O)[C@@]2(C)O1` [colforsin daropate], the TEAD-luciferase reporter activity is inactive: -0.187 (compound concentration: 200 nM), inactive: -2.12 (compound concentration: 2 uM) and inactive: -0.778 (compound concentration: 10 uM).
